{"source": "PubChem BioAssay AID1347423", "about": "(Functional Genomics Laboratory (NCATS/FGL), 2020)", "note": "The campaign covered roughly 52,000 sequences. About 210 (0.4%) were called active.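 Rule for the calls: active = gene whose silencing raises cell survival under the drug, median off-target-corrected z-score across its silencing RNAs 2 or more; inactive = the rest.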 Some of the results follow."}
{"assay": "Resistance to Poly (ADP-Ribose) Polymerase inhibitor: Gene Identification via Genome-wide siRNA Screen", "conditions": "mouse BRCA2 R2336H ES cells, olaparib, CellTiter-Glo viability; active compounds read high", "in_short": "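Genome-wide siRNA screen (3 siRNAs/gene, 20 nM) in mouse ES cells carrying hypomorphic BRCA2 R2336H; olaparib 500 nM added 48 h post-transfection, CellTiter-Glo viability 72 h later. Normalized to plate-median negative control; MAD z-scores, gene median, seed-adjusted.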"}
{"sequence": "GGAAAAGUAUUGGUAGACGTT against Tnfaip9", "z-score": "inactive: -1.01"}
{"sequence": "GAGGGCUCUACAGUUUUUATT against Atp5g3", "z-score": "inactive: -0.536"}
{"sequence": "GCUGCUUUCUUUGGAGGACTT against Olfr484", "z-score": "inactive: -0.487"}
{"sequence": "GGUCAGCCAGACCAUUUCUTT against AA517853", "z-score": "inactive: -0.715"}
{"sequence": "GCCAACCUGAAUAGACCUCTT against Glis3", "z-score": "inactive: 0.969"}
{"sequence": "GGUGAUUGACAGAUUCUGATT against Nr4a1", "z-score": "inactive: 1.02"}
{"sequence": "GCUUCCUCUACGACUACUATT against Tfcp2l4", "z-score": "inactive: -2.26"}
{"sequence": "GGAAGGAUGGAGCAAAGCCTT against 2310050B20Rik", "z-score": "inactive: 0.666"}
{"sequence": "GGUCAAGACUGAACUGUGATT against C630049M13", "z-score": "inactive: 2.02"}
{"sequence": "CGGACAUCAUUGUUUUAAGTT against Rbbp7", "z-score": "inactive: -0.157"}
{"sequence": "GCGCAGAGCAAAAUCGAAUTT against Gja1", "z-score": "inactive: 0.386"}
{"sequence": "CGAUUCUUUACUAAAUUGGTT against Chek1", "z-score": "inactive: -0.213"}
{"sequence": "GGGUCUAGAGACAUGUGGCTT against Saa3", "z-score": "inactive: -0.00552"}
{"sequence": "GGGAUUUCUGGAGAAAAUGTT against 2010005H15Rik", "z-score": "inactive: -2.86"}
{"sequence": "GCAGUCAGGAGUUGUUCAGTT against Btg1", "z-score": "inactive: -0.89"}
{"sequence": "GGAAAAUCAGAUUUCAGAGTT against Lrrn1", "z-score": "inactive: 1.75"}
{"sequence": "GCAAAUGACCUUCUCACACTT against Gga2", "z-score": "inactive: -0.0598"}
{"sequence": "GCAGCAUAUGAACACAAUATT against A630007B06Rik", "z-score": "inactive: 1.51"}
{"sequence": "CCUCAAUUUAGGCACUAAUTT against 2010005J08Rik", "z-score": "inactive: 1.96"}
{"sequence": "GGGAGUGGCUCCUCAGAAATT against AW549877", "z-score": "inactive: 0.485"}
{"sequence": "GGAGGAUGCUGAAAUUAUUTT against Atp6v0a1", "z-score": "inactive: -1.66"}
{"sequence": "GCACUCGGCCAUAAAGUGUTT against Phkb", "z-score": "inactive: 2.58"}
{"sequence": "GGGACCAAGGGAUAAACCATT against Atxn7l1", "z-score": "inactive: -1.01"}
{"sequence": "GCCUGAUGGUGCUAAGACUTT against Olfr854", "z-score": "inactive: -0.787"}
{"sequence": "GCGUAUUUGAGAAUUUAGATT against Atrx", "z-score": "inactive: 0.159"}
{"sequence": "GGACUGUACUAUGGCUCUCTT against Nt5m", "z-score": "inactive: 1.32"}
{"sequence": "GGCAUUUCCGACAGAGAUGTT against Cpne4", "z-score": "inactive: 0.597"}
{"sequence": "GGGAAUACAUUCAUUAUCATT against Sema3c", "z-score": "inactive: 0.988"}
{"sequence": "GGCAUCUGUUAUUGAAGUGTT against Vit", "z-score": "inactive: 0.771"}
{"sequence": "UAGUGAGCAAGGAAUUGGATT against LOC435023", "z-score": "inactive: 0.195"}
{"sequence": "GGCUGAAUGUCGCUUAGAGTT against 9030612E09Rik", "z-score": "inactive: 0.115"}
{"sequence": "UGUUCCUAGGUCAGCUACUTT against Olfr1200", "z-score": "inactive: 1.81"}
{"sequence": "GGGACCUCUACAGAGAUGUTT against Zfp113", "z-score": "inactive: -0.326"}
{"sequence": "CCAAUCCUGUGAGAGCAUGTT against Tectb", "z-score": "inactive: 0.888"}
{"sequence": "GUGAUUGGGAACCUGUUUATT against Paqr6", "z-score": "inactive: 0.115"}
{"sequence": "GGUUAGAGAUCUUUUGAAATT against St14", "z-score": "inactive: 0.921"}
{"sequence": "GGUUAAAAGCCAUGUGUAATT against Pggt1b", "z-score": "inactive: -0.128"}
{"sequence": "GGUGGAUGAGGACACUAUCTT against Hs6st1", "z-score": "inactive: -0.22"}
{"sequence": "GGAGGUGAACAAUAUCUUCTT against Klf5", "z-score": "inactive: 1.19"}
{"sequence": "GGAUGUUUGGACAUCAUUUTT against 2610002M06Rik", "z-score": "inactive: 1.82"}
{"sequence": "GGAGACCUGUGACUCCUUATT against 4932415M13", "z-score": "inactive: 0.159"}
{"sequence": "CCCGUCUUACUGCUCUUCUTT against Slc22a13", "z-score": "inactive: 1.55"}
{"sequence": "GCUUCUCAAAUAAACAGCATT against Hexa", "z-score": "inactive: 1.01"}
{"sequence": "GCCUGCUUAUAUAGGGUGUTT against 2400003B06Rik", "z-score": "inactive: -0.947"}
{"sequence": "UACAACCCACCUUUUAAGUTT against Tusc1", "z-score": "inactive: -1.76"}
{"sequence": "CCAGGUAAACAUUGCUACUTT against Mpdz", "z-score": "inactive: 0.981"}
{"sequence": "UGGUUGUGAUCAACAGAAUTT against LOC380997", "z-score": "inactive: 0.284"}
{"sequence": "GGUCAGGUAGGGAUAUACATT against 0610009O20Rik", "z-score": "inactive: -1.93"}
{"sequence": "GGCCAUAACACAAAUGUAGTT against Prpf4", "z-score": "inactive: 0.403"}
{"sequence": "GGUAUGUCGCCAUCUGCUUTT against Olfr1342", "z-score": "inactive: -0.852"}
{"sequence": "GGCCUAGGGAAAGCUAUGGTT against Cml3", "z-score": "inactive: -0.2"}
{"sequence": "CCCAAGUUUGUAAAAGAAUTT against 1110019C08Rik", "z-score": "inactive: 0.394"}
